PubChem BioAssay AID1508597 | Cure First – 2020

Test: 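Survival screen with siRNA in ovarian cancer cells derived from patients, with or without rucaparib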 (primary screen)
System: human ovarian carcinoma lines grown from tumours: OCI-P5x (papillary serous) and OCI-C5x (clear cell)
Knock-down reagent: siRNA pool against human genes, 1.25 pmol siRNA per well
Duration: 72 h or 96 h, depending on the cell culture
Conditions: rucaparib 20 µM (about IC30) or vehicle, present until read-out
Measurement: 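ATP luminescence measured at 72 or 96 h according to the culture, then normalised and expressed as percent viability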
Scale: viability, normalised: higher = more viable cells remaining
Hit rule: 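a well counts as a hit if its normalised viability is under 80 percent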
Calls: active = viability under 80%; inactive = viability 80% or more
Here is an unselected part of about 2,100 reagents. 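Calls flag viability under 80% in either arm, not effects specific to rucaparib; the reference for percent is not stated.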 Entries without a mark were called inactive. No sequences are given here. Not stated in the record: the 100% reference.

target gene	rucaparib or vehicle	cell line	technical replicate	viability, normalised (%)
ZFYVE9 (zinc finger FYVE-type containing 9)	Rucaparib	OCI-C5x (clear cell)	1	54.8 (active)
ZFYVE9 (zinc finger FYVE-type containing 9)	Rucaparib	OCI-C5x (clear cell)	2	60.5 (active)
ZFYVE9 (zinc finger FYVE-type containing 9)	Rucaparib	OCI-C5x (clear cell)	3	57 (active)
ZFYVE9 (zinc finger FYVE-type containing 9)	Rucaparib	OCI-P5x (serous)	1	64.6 (active)
ZFYVE9 (zinc finger FYVE-type containing 9)	Rucaparib	OCI-P5x (serous)	2	40.3 (active)
ZFYVE9 (zinc finger FYVE-type containing 9)	Rucaparib	OCI-P5x (serous)	3	49.9 (active)
ZFYVE9 (zinc finger FYVE-type containing 9)	Vehicle	OCI-C5x (clear cell)	1	75.4 (active)
ZFYVE9 (zinc finger FYVE-type containing 9)	Vehicle	OCI-C5x (clear cell)	2	57 (active)
ZFYVE9 (zinc finger FYVE-type containing 9)	Vehicle	OCI-C5x (clear cell)	3	69 (active)
ZFYVE9 (zinc finger FYVE-type containing 9)	Vehicle	OCI-P5x (serous)	1	64.3 (active)
ZFYVE9 (zinc finger FYVE-type containing 9)	Vehicle	OCI-P5x (serous)	2	94.2
ZFYVE9 (zinc finger FYVE-type containing 9)	Vehicle	OCI-P5x (serous)	3	55.2 (active)
SKP1 (S-phase kinase associated protein 1)	Rucaparib	OCI-C5x (clear cell)	1	45.7 (active)
SKP1 (S-phase kinase associated protein 1)	Rucaparib	OCI-C5x (clear cell)	2	57.5 (active)
SKP1 (S-phase kinase associated protein 1)	Rucaparib	OCI-C5x (clear cell)	3	55.6 (active)
SKP1 (S-phase kinase associated protein 1)	Rucaparib	OCI-P5x (serous)	1	93.3
SKP1 (S-phase kinase associated protein 1)	Rucaparib	OCI-P5x (serous)	2	119
SKP1 (S-phase kinase associated protein 1)	Rucaparib	OCI-P5x (serous)	3	92
SKP1 (S-phase kinase associated protein 1)	Vehicle	OCI-C5x (clear cell)	1	58.1 (active)
SKP1 (S-phase kinase associated protein 1)	Vehicle	OCI-C5x (clear cell)	2	71.2 (active)
SKP1 (S-phase kinase associated protein 1)	Vehicle	OCI-C5x (clear cell)	3	64.6 (active)
SKP1 (S-phase kinase associated protein 1)	Vehicle	OCI-P5x (serous)	1	121
SKP1 (S-phase kinase associated protein 1)	Vehicle	OCI-P5x (serous)	2	114
SKP1 (S-phase kinase associated protein 1)	Vehicle	OCI-P5x (serous)	3	92.9

Sorted by “viability, normalised (%)” (descending): 2 of the entries above
target gene	rucaparib or vehicle	cell line	technical replicate	viability, normalised (%)
SKP1 (S-phase kinase associated protein 1)	Rucaparib	OCI-C5x (clear cell)	2	57.5 (active)
SKP1 (S-phase kinase associated protein 1)	Rucaparib	OCI-C5x (clear cell)	1	45.7 (active)
